Laboratory results taken from article PMC9363421.
No constants are given. Whether binding was seen depends on the method and setting. In cells and extracts the contact can be indirect. A result given as binding can be weak or reduced; the word gives no strength. For part of these data: Tags and fused reporters may be left off the sequences shown. One block for each molecule: values may come before it.

The chains behind the UniProt entries cited, without tags or fusion partners. Where a name states a change or a piece, a line headed by the entry shows the natural chain unless it says otherwise.
UniProt Q06210: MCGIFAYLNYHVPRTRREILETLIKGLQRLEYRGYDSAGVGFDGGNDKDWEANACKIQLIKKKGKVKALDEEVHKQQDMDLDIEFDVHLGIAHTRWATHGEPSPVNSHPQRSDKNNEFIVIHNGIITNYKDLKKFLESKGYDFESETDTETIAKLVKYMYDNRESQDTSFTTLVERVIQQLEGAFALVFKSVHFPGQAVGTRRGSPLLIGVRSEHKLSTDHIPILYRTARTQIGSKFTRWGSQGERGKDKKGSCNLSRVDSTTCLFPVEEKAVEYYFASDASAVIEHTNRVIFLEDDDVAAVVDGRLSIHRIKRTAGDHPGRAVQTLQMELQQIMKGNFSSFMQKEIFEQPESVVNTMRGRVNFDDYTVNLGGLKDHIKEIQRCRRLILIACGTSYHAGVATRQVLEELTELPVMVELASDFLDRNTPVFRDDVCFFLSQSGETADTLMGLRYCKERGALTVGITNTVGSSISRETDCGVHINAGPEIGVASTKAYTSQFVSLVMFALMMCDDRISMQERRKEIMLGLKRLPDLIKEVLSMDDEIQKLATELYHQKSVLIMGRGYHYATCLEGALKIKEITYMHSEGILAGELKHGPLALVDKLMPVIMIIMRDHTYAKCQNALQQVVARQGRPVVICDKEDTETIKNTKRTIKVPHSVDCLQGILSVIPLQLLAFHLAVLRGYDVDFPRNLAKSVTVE

Columns and labels:
[1] = target: T1, TAB1-S423A, transiently expressed (human) (UniProt Q15750); test: co-IP; A549 cells with transient expression of WT TAB1 or TAB1 mutants, 8 h glucose deprivation; immunoprecipitation and immunoblotting
T1 sequence: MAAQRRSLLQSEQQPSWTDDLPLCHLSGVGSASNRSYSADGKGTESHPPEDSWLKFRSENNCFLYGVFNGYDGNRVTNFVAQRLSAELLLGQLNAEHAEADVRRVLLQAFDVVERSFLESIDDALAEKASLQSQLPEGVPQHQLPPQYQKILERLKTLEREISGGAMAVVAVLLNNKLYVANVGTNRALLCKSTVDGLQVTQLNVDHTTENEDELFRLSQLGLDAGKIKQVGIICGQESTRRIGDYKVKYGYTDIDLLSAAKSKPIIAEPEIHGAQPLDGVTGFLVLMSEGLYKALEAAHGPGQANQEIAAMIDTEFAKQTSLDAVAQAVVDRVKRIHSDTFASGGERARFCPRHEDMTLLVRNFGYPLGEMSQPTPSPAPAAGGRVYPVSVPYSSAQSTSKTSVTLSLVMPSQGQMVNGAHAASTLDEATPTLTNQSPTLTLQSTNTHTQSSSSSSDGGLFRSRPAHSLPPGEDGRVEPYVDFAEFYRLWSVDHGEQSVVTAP

[2] = target: T2, TAB1-T431A, transiently expressed (human) (UniProt Q15750); test: as above
T2 sequence: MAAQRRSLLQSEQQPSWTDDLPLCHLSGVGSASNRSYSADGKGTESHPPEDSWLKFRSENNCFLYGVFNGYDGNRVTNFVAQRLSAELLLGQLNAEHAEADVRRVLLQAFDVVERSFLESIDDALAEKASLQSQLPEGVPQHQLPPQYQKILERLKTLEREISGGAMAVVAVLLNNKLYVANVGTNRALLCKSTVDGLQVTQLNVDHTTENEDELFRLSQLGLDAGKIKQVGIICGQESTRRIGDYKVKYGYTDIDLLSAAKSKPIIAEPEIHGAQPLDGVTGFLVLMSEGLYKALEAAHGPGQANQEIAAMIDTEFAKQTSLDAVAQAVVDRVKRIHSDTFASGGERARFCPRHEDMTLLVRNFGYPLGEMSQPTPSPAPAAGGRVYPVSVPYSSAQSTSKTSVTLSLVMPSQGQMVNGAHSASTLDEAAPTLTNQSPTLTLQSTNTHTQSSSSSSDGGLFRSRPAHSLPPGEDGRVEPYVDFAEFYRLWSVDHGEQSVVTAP

HA-rTAB1-S438D (human) = target: T3, HA-rTAB1-S438D (human) (UniProt Q15750); test: co-IP; A549 (and H1299) cells with depleted TAB1 and reconstituted rTAB1 WT or mutants, basal or 8 h glucose deprivation (also with CoCl2 10 μM or exogenous glutamate); immunoprecipitation (anti-HA) and immunoblotting
T3 sequence: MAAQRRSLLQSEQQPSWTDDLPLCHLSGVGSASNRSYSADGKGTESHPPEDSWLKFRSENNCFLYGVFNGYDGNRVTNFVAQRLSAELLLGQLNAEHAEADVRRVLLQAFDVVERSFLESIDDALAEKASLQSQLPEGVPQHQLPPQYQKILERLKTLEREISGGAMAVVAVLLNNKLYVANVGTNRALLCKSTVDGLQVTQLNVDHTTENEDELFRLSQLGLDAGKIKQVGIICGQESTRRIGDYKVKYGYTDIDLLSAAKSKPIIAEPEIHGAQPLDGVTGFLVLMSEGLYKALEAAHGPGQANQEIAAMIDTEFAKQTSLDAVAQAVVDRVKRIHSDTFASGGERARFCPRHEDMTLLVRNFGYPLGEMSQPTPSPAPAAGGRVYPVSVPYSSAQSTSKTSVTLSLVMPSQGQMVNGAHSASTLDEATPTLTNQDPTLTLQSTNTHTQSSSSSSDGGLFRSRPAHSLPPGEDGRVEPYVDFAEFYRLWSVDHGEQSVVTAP

GST-GFAT1 (human) = GST-GFAT1 (human) (UniProt Q06210); test: pull-down; purified GST-GFAT1 mixed with lysates of A549 cells cultured 8 h under glucose deprivation; immunoblotting; only the target purified
[3] = target: Flag-GFAT1 (glutamine-fructose-6-phosphate amidotransferase 1) (human) (UniProt Q06210); test: co-IP; Flag-GFAT1 immunoprecipitation from A549 cells with stable expression, with or without 8 h glucose deprivation; immunoblotting
[4] = target: glutamine-fructose-6-phosphate amidotransferase 1 (GFAT1), endogenous (human (endogenous in A549 and H1299)) (UniProt Q06210); test: co-IP; endogenous proteins, A549 and H1299 lysates, 8 h glucose deprivation; lysis buffer 50 mM Tris-HCl pH 7.4, 150 mM NaCl, 1 mM EDTA, 1% NP-40, 1% sodium deoxycholate, 0.1% SDS; antibody and protein G beads overnight at 4 °C; cells also with single kinase inhibitors, TAB1 depletion, rTAB1 or rGFAT1 reconstitution, glutamine deprivation, exogenous glutamate or GlcN, CoCl2

binding [1]: binds
binding [2]: binds
binding (HA-rTAB1-S438D (human)): binds
Molecule: glutamine-fructose-6-phosphate amidotransferase 1 (GFAT1), endogenous (from UniProt Q06210-2) (enzyme)

binding (GST-GFAT1 (human)): binds
B1: transforming growth factor β-activated kinase 1 binding protein 1 (TAB1), endogenous (protein, UniProt Q15750 1-504)
chain: MAAQRRSLLQSEQQPSWTDDLPLCHLSGVGSASNRSYSADGKGTESHPPEDSWLKFRSENNCFLYGVFNGYDGNRVTNFVAQRLSAELLLGQLNAEHAEADVRRVLLQAFDVVERSFLESIDDALAEKASLQSQLPEGVPQHQLPPQYQKILERLKTLEREISGGAMAVVAVLLNNKLYVANVGTNRALLCKSTVDGLQVTQLNVDHTTENEDELFRLSQLGLDAGKIKQVGIICGQESTRRIGDYKVKYGYTDIDLLSAAKSKPIIAEPEIHGAQPLDGVTGFLVLMSEGLYKALEAAHGPGQANQEIAAMIDTEFAKQTSLDAVAQAVVDRVKRIHSDTFASGGERARFCPRHEDMTLLVRNFGYPLGEMSQPTPSPAPAAGGRVYPVSVPYSSAQSTSKTSVTLSLVMPSQGQMVNGAHSASTLDEATPTLTNQSPTLTLQSTNTHTQSSSSSSDGGLFRSRPAHSLPPGEDGRVEPYVDFAEFYRLWSVDHGEQSVVTAP

binding [3]: binds
binding [4]: binds
B2: TTLL5, endogenous (enzyme, UniProt Q6EMB2 1-1281)
chain: MPIVMARDLEETASSSEDEEVISQEDHPCIMWTGGCRRIPVLVFHADAILTKDNNIRVIGERYHLSYKIVRTDSRLVRSILTAHGFHEVHPSSTDYNLMWTGSHLKPFLLRTLSEAQKVNHFPRSYELTRKDRLYKNIIRMQHTHGFKAFHILPQTFLLPAEYAEFCNSYSKDRGPWIVKPVASSRGRGVYLINNPNQISLEENILVSRYINNPLLIDDFKFDVRLYVLVTSYDPLVIYLYEEGLARFATVRYDQGAKNIRNQFMHLTNYSVNKKSGDYVSCDDPEVEDYGNKWSMSAMLRYLKQEGRDTTALMAHVEDLIIKTIISAELAIATACKTFVPHRSSCFELYGFDVLIDSTLKPWLLEVNLSPSLACDAPLDLKIKASMISDMFTVVGFVCQDPAQRASTRPIYPTFESSRRNPFQKPQRCRPLSASDAEMKNLVGSAREKGPGKLGGSVLGLSMEEIKVLRRVKEENDRRGGFIRIFPTSETWEIYGSYLEHKTSMNYMLATRLFQDRMTADGAPELKIESLNSKAKLHAALYERKLLSLEVRKRRRRSSRLRAMRPKYPVITQPAEMNVKTETESEEEEEVALDNEDEEQEASQEESAGFLRENQAKYTPSLTALVENTPKENSMKVREWNNKGGHCCKLETQELEPKFNLMQILQDNGNLSKMQARIAFSAYLQHVQIRLMKDSGGQTFSASWAAKEDEQMELVVRFLKRASNNLQHSLRMVLPSRRLALLERRRILAHQLGDFIIVYNKETEQMAEKKSKKKVEEEEEDGVNMENFQEFIRQASEAELEEVLTFYTQKNKSASVFLGTHSKISKNNNNYSDSGAKGDHPETIMEEVKIKPPKQQQTTEIHSDKLSRFTTSAEKEAKLVYSNSSSGPTATLQKIPNTHLSSVTTSDLSPGPCHHSSLSQIPSAIPSMPHQPTILLNTVSASASPCLHPGAQNIPSPTGLPRCRSGSHTIGPFSSFQSAAHIYSQKLSRPSSAKAGSCYLNKHHSGIAKTQKEGEDASLYSKRYNQSMVTAELQRLAEKQAARQYSPSSHINLLTQQVTNLNLATGIINRSSASAPPTLRPIISPSGPTWSTQSDPQAPENHSSSPGSRSLQTGGFAWEGEVENNVYSQATGVVPQHKYHPTAGSYQLQFALQQLEQQKLQSRQLLDQSRARHQAIFGSQTLPNSNLWTMNNGAGCRISSATASGQKPTTLPQKVVPPPSSCASLVPKPPPNHEQVLRRATSQKASKGSSAEGQLNGLQSSLNPAAFVPITSSTDPAHTKI
